Measured values reported in publication PMC5048297.
Changes are numbered by the printed parent chain. Results are given in words; binding and its absence hold for the method and conditions named. In cells and extracts the contact can be indirect. Some results given as binding are weak or reduced against the parent protein; the word gives no strength. For some of these results: Tags and fused reporters may be left off the sequences shown. One block for each binder: values may come before it.

Legend:
[1] = target: T1, thioredoxin-1 (TRX-1), endogenous in RAW264.7 cells (mouse (endogenous in RAW264.7)) (UniProt P10639); test: co-IP; RAW264.7 total cell lysates after LPS stimuli; IP with anti-TRX-1 antibody and protein A/G agarose; immunoblot for p40phox, gp91phox and TRX-1
T1 sequence: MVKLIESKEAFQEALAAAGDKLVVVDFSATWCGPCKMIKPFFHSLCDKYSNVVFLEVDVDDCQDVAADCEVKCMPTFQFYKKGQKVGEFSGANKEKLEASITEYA

[2] = target: T2, Nox2-(gp91phox)-myc (transfected in HEK293T cells) (UniProt P04839); test: co-IP; HEK293T cells transfected with Nox2-(gp91phox)-myc and native TRX-1; IP with anti-myc immunoprecipitation kit; immunoblot for TRX-1
T2 sequence: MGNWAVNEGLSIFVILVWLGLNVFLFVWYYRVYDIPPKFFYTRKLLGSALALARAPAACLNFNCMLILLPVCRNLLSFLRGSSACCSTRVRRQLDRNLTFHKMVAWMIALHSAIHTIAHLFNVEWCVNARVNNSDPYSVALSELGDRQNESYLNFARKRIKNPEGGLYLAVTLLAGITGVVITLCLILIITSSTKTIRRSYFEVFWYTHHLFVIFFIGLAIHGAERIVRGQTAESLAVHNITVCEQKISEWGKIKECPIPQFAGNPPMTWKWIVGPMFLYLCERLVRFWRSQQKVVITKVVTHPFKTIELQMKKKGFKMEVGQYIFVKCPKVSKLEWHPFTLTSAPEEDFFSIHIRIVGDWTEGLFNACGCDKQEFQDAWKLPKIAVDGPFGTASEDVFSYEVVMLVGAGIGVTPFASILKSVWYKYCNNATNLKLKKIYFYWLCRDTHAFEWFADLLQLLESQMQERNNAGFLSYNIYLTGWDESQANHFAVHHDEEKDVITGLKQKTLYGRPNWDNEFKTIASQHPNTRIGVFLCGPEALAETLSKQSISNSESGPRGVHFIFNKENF

[3] = target: T3, p40phox-GFP (transfected in HEK293T cells) (UniProt Q15080); test: co-IP; HEK293T cells transfected with p40phox-GFP and either native or CC32/35SS TRX-1; IP with GFP-Trap A (anti-GFP); immunoblot for GFP and TRX-1
T3 sequence: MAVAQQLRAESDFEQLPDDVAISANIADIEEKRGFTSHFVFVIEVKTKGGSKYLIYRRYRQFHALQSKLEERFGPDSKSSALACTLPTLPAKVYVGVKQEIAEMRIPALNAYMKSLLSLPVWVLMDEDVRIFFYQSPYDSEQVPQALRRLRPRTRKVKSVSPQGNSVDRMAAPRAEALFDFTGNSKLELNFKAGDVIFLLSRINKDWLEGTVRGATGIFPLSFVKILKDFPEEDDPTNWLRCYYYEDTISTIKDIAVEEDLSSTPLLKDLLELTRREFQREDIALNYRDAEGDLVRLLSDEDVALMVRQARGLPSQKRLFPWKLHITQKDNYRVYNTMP

binding [1]: binds
B1: p40phox, endogenous in RAW264.7 cells (protein, UniProt P97369 1-339)
chain: MALAQQLRSESDFEQLPDDVAVSANIADIEEKRGFTSHFVFVIEVKTKGGSKYLIYRRYRQFYALQSKLEERFGPESKNSPFTCSLPTLPAKVYMGAKQEIAETRIPALNAYMKNLLSLPVCVLMDPDVRIFFYQSAYDAEQVPQALRRLRPRTRKIKGVSPQGAIMDRMEAPRAEALFDFTGNSKLELSFKAGDVIFLLSKINKDWLEGTSQGATGIFPGSFVKILKDFPEDEDTTNWLRCYFYEDTGKTIKDIAVEEDLSSTPLFKDLLALMRREFQREDIALSYQDAEGDLVRLLSDEDVGLMVKQARGLPSQKRLFPWKLHVTQKDNYSVYNTVP

binding [2]: no binding
binding [3]: binds
B2: native TRX-1 (transfected in HEK293T cells) (protein, UniProt P10599 1-105)
chain: MVKQIESKTAFQEALDAAGDKLVVVDFSATWCGPCKMIKPFFHSLSEKYSNVIFLEVDVDDCQDVASECEVKCMPTFQFFKKGQKVGEFSGANKEKLEATINELV

binding [3]: no binding
B3: mutated CC32/35SS TRX-1 (transfected in HEK293T cells) (protein, UniProt P10599 1-105)
chain: B2 chain with C32S, C35S
